# Measurements reported in PubChem BioAssay AID1259254 (NCATS, 2017)
# Aim: 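Finding genes that stop cells copying their DNA twice in one cycle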 (primary screen)
# Cells: human HCT116 colorectal cancer cells
# Reagents: single siRNA against human genes
# Duration: 3 days
# Detection: 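Imaged Hoechst DNA stain sorts each cell into a cycle phase by DNA amount; per plate, G2 fraction set to 0% for non-targeting and 100% for GMNN siRNA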
# Direction: G2 robust z-score and G2 cells, % of GMNN control: higher = more G2 cells, more excess DNA replication; raw share of cells in G2: higher = larger share of cells with G2 DNA content
# Call rule: 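Active siRNAs have a G2 robust z of 5 or more median absolute deviations over the median, which in these data means about 38% or higher of GMNN control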
# In all, the deposit lists about 59,000 reagents; shown is an unselected part. In the full data, about 1,550 (2.6%) got an active call. 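G2 share is only a proxy for re-replication; each gene was hit by three separate siRNAs, and active genes were retested.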 Raw values vary from plate to plate and are shown uncorrected. Entries without a mark were called inactive. The numbers tell different reagents against one gene apart. The record does not give: the amount of reagent.
gene,siRNA no.,G2 robust z-score,"G2 cells, % of GMNN control",raw share of cells in G2 (%)
STEEP1P1 (GeneID 728024),1,-0.368,0.381,3.69
STEEP1P1 (GeneID 728024),2,-1.01,-4.11,1.42
STEEP1P1 (GeneID 728024),3,-0.618,-1.38,3.08
PARP2 (GeneID 10038),1,4.05,31.4,17.1
PARP2 (GeneID 10038),2,-0.305,0.822,5.08
PARP2 (GeneID 10038),3,0.471,6.28,5.34
STAP1 (GeneID 26228),1,-0.577,-1.09,5.25
STAP1 (GeneID 26228),2,0.709,7.95,8.08
STAP1 (GeneID 26228),3,1.27,11.9,7.49
TTF1 (GeneID 7270),1,-1.23,-5.72,3.18
TTF1 (GeneID 7270),2,-0.609,-1.32,4.04
TTF1 (GeneID 7270),3,-0.75,-2.31,3.4
MRPS18B (GeneID 28973),1,-0.845,-2.97,2.72
MRPS18B (GeneID 28973),2,-1.29,-6.13,2.23
MRPS18B (GeneID 28973),3,-0.377,0.318,3.35
DIP2B (GeneID 57609),1,-1.43,-7.07,1.56
DIP2B (GeneID 57609),2,-1,-4.09,2.51
DIP2B (GeneID 57609),3,-1.19,-5.44,1.31

2 entries from above, limited to “raw share of cells in G2 (%)”:
STEEP1P1 (GeneID 728024) #1	3.69
STEEP1P1 (GeneID 728024) #2	1.42

The listing continues:
gene,siRNA no.,G2 robust z-score,"G2 cells, % of GMNN control",raw share of cells in G2 (%)
HTT (GeneID 3064),1,0.526,6.67,8.22
HTT (GeneID 3064),2,5.42 (active),41.1,20
HTT (GeneID 3064),3,-0.0274,2.77,5.22
FREM2 (GeneID 341640),1,-0.286,0.958,6.32
FREM2 (GeneID 341640),2,-0.509,-0.611,4.72
FREM2 (GeneID 341640),3,-0.386,0.252,4.38
CSTF2T (GeneID 23283),1,1.6,14.2,12.1
CSTF2T (GeneID 23283),2,-1.08,-4.6,2.62
CSTF2T (GeneID 23283),3,-0.157,1.86,4.5
CIC (GeneID 23152),1,-0.316,0.743,4.12
CIC (GeneID 23152),2,0.71,7.96,6.82
CIC (GeneID 23152),3,-0.593,-1.2,5.89
